The subject of this experiment is serotonin (rat uterus). The experiment can be described thus: antiserotonin activity in the rat uterus (spasmogenic effect of serotonin). Conditions: rat uterine horn, 30° C., 0.4 microgram per milliliter of serotonin; read-out: IC50 (decrease of spasmogenic effect of serotonin by 50%). Format: cell-based. As to the method: According to this test one of the uterine horns of a rat uterus is suspended in oxygenated salt solution at 30° C. The contractions of this tissue are then recorded and varying concentrations of the test compound introduced into the bath in order to determine the concentration that would decrease the spasmogenic effect of 0.4 microgram per milliliter of serotonin by 50%. This value is designated the IC50.

The record followed here is patent US4064254A, “Substituted piperidines therapeutic process and compositions” (Mead Johnson & Company, priority 1976, dated 1977).

Structures are written as SMILES. In brackets after ≈: the same amount, converted by molar mass.

In the case of `CC[C@@H](CO)NC(=O)[C@@H]1C=C2c3cccc4c3c(cn4C)C[C@H]2N(C)C1` [methysergide, reference compound], the IC50 came out at 2.5 ng/mL (≈ 7.07 nM).
